# The list shows a part of the results.
# B1: XTP3-B-MRH1 (Homo sapiens), Q96DZ1 (protein)
# chain: LLEPLFKQSSCSYRIESYWTYEVCHGKHIRQYHEEKETGQKINIHEYYLGNMLAKNLLFEKEREAEEKEKSNEIPTKNIEGQMTPYYPVGMGNGTPCSLKQNRPRSSTVMYICHPESKHEILSVAEVTTCEYEVVILTPLLCSHPKYRFRA
# How the values were obtained:
# Experiment in all cases: glycan array binding signal (z-score within array); higher = stronger binding
# Details in all cases: glycan notation: IUPAC condensed, linker removed
# [1] = target: Neu5Ac(a2-6)GlcNAc(b1-4)GlcNAc(b1-4)GlcNAc
# Outline: (§1)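 The Consortium for Functional Glycomics database supplied 3228 glycan arrays, of which those lacking an available protein sequence were dropped. The binding signal, a within-array Z-score, was averaged across arrays of the same protein sequence and across linkers. Negative scores can be read as non-binding.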
# [2] = target: Neu5Ac(a2-8)Neu5Ac
# Outline: as §1
# [3] = target: Neu5Ac(a2-8)Neu5Ac(a2-3)Gal(b1-3)GalNAc(b1-4)[Neu5Ac(a2-3)]Gal(b1-4)Glc
# Outline: as §1
# [4] = target: Neu5Ac(a2-8)Neu5Ac(a2-3)Gal(b1-3)GalNAc(b1-4)[Neu5Ac(a2-8)Neu5Ac(a2-3)]Gal(b1-4)Glc
# Outline: as §1
# [5] = target: Neu5Ac(a2-8)Neu5Ac(a2-3)Gal(b1-4)Glc
# Outline: as §1
# [6] = target: Neu5Ac(a2-8)Neu5Ac(a2-3)Gal(b1-4)GlcNAc
# Outline: as §1
# [7] = target: Neu5Ac(a2-8)Neu5Ac(a2-3)[Gal(b1-3)GalNAc(b1-4)]Gal(b1-4)Glc
# Outline: as §1
# [8] = target: Neu5Ac(a2-8)Neu5Ac(a2-3)[GalNAc(b1-4)]Gal(b1-4)Glc
# Outline: as §1
# [9] = target: Neu5Ac(a2-8)Neu5Ac(a2-8)Neu5Ac
# Outline: as §1
# [10] = target: Neu5Ac(a2-8)Neu5Ac(a2-8)Neu5Ac(a2-3)Gal(b1-4)Glc
# Outline: as §1
# [11] = target: Neu5Ac(a2-8)Neu5Ac(a2-8)Neu5Ac(a2-3)[Gal(b1-3)GalNAc(b1-4)]Gal(b1-4)Glc
# Outline: as §1
# [12] = target: Neu5Ac(a2-8)Neu5Ac(a2-8)Neu5Ac(a2-3)[GalNAc(b1-4)]Gal(b1-4)Glc
# Outline: as §1
# [13] = target: Neu5Ac(a2-8)Neu5Ac(a2-8)Neu5Ac(a2-8)Neu5Ac(a2-3)[GalNAc(b1-4)]Gal(b1-4)Glc
# Outline: as §1
# [14] = target: Neu5Ac(a2-8)Neu5Gc(a2-3)Gal(b1-4)GlcNAc
# Outline: as §1
# [15] = target: Neu5Ac(b2-6)Gal(b1-4)GlcNAc
# Outline: as §1
# [16] = target: Neu5Ac(b2-6)GalNAc
# Outline: as §1
# [17] = target: Neu5Ac9Ac(a2-3)Gal(b1-3)GlcNAc
# Outline: as §1
# [18] = target: Neu5Ac9Ac(a2-3)Gal(b1-4)GlcNAc
# Outline: as §1
# [19] = target: Neu5Ac9Ac(a2-6)Gal(b1-4)GlcNAc
# Outline: as §1
# [20] = target: Neu5Gc(a2-3)Gal(b1-3)GlcNAc
# Outline: as §1
# [21] = target: Neu5Gc(a2-3)Gal(b1-3)[Fuc(a1-4)]GlcNAc
# Outline: as §1
# [22] = target: Neu5Gc(a2-3)Gal(b1-4)Glc
# Outline: as §1
# [23] = target: Neu5Gc(a2-3)Gal(b1-4)GlcNAc
# Outline: as §1
# [24] = target: Neu5Gc(a2-3)Gal(b1-4)GlcNAc(b1-3)Gal(b1-4)GlcNAc(b1-2)Man(a1-3)[Neu5Gc(a2-3)Gal(b1-4)GlcNAc(b1-3)Gal(b1-4)GlcNAc(b1-2)Man(a1-6)]Man(b1-4)GlcNAc(b1-4)GlcNAc
# Outline: as §1
# [25] = target: Neu5Gc(a2-3)Gal(b1-4)[Fuc(a1-3)]GlcNAc
# Outline: as §1
# [26] = target: Neu5Gc(a2-6)Gal(b1-4)GlcNAc
# Outline: as §1
# [27] = target: Neu5Gc(a2-6)GalNAc
# Outline: as §1
# [28] = target: Neu5Gc(a2-8)Neu5Ac(a2-3)Gal(b1-4)GlcNAc
# Outline: as §1
# [29] = target: Neu5Gc(a2-8)Neu5Gc(a2-3)Gal(b1-4)GlcNAc
# Outline: as §1
# [30] = target: Neu5Gc(a2-8)Neu5Gc(a2-3)Gal(b1-4)GlcNAc(b1-3)Gal(b1-4)GlcNAc
# Outline: as §1
# [31] = target: Neu5Gc(a2-8)Neu5Gc(a2-6)Gal(b1-4)GlcNAc
# Outline: as §1
# [32] = target: Neu5Gc(b2-6)Gal(b1-4)GlcNAc
# Outline: as §1
binder,measurement,setting,value
B1,glycan array binding signal (z-score),[1],-1.64
same,glycan array binding signal (z-score),[2],-0.956
same,glycan array binding signal (z-score),[3],-1.01
same,glycan array binding signal (z-score),[4],0.938
same,glycan array binding signal (z-score),[5],-0.144
same,glycan array binding signal (z-score),[6],0.568
same,glycan array binding signal (z-score),[7],2.49
same,glycan array binding signal (z-score),[8],0.364
same,glycan array binding signal (z-score),[9],0.151
same,glycan array binding signal (z-score),[10],-1.44
same,glycan array binding signal (z-score),[11],0.01
same,glycan array binding signal (z-score),[12],0.616
same,glycan array binding signal (z-score),[13],1.37
same,glycan array binding signal (z-score),[14],-0.348
same,glycan array binding signal (z-score),[15],-1.35
same,glycan array binding signal (z-score),[16],-0.212
same,glycan array binding signal (z-score),[17],0.769
same,glycan array binding signal (z-score),[18],1.54
same,glycan array binding signal (z-score),[19],-0.172
same,glycan array binding signal (z-score),[20],-0.359
same,glycan array binding signal (z-score),[21],0.922
same,glycan array binding signal (z-score),[22],-1
same,glycan array binding signal (z-score),[23],0.292
same,glycan array binding signal (z-score),[24],0.593
same,glycan array binding signal (z-score),[25],-0.253
same,glycan array binding signal (z-score),[26],-1.46
same,glycan array binding signal (z-score),[27],-1.51
same,glycan array binding signal (z-score),[28],1.12
same,glycan array binding signal (z-score),[29],0.701
same,glycan array binding signal (z-score),[30],0.59
same,glycan array binding signal (z-score),[31],-1.21
same,glycan array binding signal (z-score),[32],0.365

# Reprinted at random: two records from the list.
binder,measurement,setting,value
B1,glycan array binding signal (z-score),[22],-1
same,glycan array binding signal (z-score),[24],0.593

# Reference: the supplement of paper PMC8728848
